Results as given in the supplement of paper PMC10849652.
This is one part of the list.

Protein sequences, listed by entry. Tags and fused reporters are not part of them. Lines headed by an entry give the natural chain unless they say otherwise; changes in a name come on top.
UniProt Q8NE35: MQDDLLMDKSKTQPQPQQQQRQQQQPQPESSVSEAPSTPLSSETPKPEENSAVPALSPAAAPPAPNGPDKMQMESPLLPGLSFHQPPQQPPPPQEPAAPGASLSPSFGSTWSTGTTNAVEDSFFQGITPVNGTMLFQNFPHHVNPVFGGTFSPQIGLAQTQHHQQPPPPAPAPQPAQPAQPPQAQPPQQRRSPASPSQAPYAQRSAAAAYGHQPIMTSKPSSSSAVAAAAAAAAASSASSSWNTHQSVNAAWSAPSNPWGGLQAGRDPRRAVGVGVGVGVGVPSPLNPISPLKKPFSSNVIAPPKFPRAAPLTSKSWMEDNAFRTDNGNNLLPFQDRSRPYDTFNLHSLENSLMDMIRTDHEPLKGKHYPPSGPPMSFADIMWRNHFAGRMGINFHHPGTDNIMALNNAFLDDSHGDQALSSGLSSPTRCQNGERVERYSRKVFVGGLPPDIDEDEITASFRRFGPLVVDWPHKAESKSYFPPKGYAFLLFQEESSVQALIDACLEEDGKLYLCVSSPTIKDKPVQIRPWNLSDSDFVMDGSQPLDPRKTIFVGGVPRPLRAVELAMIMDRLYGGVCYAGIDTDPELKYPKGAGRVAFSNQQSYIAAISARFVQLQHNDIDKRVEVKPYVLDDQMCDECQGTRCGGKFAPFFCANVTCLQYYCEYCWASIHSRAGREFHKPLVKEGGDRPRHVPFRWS
UniProt Q96I36: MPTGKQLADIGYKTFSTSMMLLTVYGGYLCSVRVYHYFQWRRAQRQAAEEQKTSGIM
UniProt G9CGD6: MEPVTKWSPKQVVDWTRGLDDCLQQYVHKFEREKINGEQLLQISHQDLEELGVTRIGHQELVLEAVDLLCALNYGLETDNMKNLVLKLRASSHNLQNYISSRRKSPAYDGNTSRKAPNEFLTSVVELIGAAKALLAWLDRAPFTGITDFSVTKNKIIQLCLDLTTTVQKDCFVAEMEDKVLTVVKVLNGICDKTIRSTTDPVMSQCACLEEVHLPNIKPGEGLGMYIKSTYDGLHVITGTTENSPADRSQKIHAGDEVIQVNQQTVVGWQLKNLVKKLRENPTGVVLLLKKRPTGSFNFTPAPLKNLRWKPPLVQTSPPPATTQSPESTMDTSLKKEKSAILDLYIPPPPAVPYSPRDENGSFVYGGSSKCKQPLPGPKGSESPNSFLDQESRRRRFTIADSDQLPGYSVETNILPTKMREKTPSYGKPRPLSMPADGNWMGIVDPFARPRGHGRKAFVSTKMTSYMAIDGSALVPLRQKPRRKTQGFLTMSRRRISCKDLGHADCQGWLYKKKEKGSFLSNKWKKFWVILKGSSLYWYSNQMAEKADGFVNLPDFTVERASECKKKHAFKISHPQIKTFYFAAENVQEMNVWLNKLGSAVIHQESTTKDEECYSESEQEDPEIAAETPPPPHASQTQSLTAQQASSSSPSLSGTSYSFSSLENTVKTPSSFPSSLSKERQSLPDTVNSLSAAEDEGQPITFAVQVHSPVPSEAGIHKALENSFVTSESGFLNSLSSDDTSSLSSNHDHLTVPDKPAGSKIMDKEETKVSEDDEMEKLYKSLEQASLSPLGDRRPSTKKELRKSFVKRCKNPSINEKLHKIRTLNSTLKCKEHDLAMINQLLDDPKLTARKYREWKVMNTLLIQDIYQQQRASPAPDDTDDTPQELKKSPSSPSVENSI
UniProt Q96D53: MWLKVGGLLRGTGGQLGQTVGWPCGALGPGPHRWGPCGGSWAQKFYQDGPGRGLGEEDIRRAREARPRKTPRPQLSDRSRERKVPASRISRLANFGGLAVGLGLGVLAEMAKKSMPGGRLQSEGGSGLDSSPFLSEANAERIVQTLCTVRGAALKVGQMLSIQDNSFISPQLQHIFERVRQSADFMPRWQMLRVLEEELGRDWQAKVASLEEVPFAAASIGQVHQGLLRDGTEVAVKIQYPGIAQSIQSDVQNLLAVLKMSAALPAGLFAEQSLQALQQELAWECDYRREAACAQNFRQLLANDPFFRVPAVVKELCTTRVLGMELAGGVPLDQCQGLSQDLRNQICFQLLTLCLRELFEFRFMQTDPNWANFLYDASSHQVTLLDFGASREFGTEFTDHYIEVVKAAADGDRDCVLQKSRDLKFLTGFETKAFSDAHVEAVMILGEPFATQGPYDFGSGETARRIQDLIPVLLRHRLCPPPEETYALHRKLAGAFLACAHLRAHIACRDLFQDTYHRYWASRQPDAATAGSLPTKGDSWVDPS
UniProt Q96F85: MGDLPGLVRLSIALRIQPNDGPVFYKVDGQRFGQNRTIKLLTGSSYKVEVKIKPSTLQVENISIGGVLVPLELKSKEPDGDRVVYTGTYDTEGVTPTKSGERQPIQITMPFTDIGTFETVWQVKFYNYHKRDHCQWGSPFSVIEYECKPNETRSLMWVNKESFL
UniProt Q05707: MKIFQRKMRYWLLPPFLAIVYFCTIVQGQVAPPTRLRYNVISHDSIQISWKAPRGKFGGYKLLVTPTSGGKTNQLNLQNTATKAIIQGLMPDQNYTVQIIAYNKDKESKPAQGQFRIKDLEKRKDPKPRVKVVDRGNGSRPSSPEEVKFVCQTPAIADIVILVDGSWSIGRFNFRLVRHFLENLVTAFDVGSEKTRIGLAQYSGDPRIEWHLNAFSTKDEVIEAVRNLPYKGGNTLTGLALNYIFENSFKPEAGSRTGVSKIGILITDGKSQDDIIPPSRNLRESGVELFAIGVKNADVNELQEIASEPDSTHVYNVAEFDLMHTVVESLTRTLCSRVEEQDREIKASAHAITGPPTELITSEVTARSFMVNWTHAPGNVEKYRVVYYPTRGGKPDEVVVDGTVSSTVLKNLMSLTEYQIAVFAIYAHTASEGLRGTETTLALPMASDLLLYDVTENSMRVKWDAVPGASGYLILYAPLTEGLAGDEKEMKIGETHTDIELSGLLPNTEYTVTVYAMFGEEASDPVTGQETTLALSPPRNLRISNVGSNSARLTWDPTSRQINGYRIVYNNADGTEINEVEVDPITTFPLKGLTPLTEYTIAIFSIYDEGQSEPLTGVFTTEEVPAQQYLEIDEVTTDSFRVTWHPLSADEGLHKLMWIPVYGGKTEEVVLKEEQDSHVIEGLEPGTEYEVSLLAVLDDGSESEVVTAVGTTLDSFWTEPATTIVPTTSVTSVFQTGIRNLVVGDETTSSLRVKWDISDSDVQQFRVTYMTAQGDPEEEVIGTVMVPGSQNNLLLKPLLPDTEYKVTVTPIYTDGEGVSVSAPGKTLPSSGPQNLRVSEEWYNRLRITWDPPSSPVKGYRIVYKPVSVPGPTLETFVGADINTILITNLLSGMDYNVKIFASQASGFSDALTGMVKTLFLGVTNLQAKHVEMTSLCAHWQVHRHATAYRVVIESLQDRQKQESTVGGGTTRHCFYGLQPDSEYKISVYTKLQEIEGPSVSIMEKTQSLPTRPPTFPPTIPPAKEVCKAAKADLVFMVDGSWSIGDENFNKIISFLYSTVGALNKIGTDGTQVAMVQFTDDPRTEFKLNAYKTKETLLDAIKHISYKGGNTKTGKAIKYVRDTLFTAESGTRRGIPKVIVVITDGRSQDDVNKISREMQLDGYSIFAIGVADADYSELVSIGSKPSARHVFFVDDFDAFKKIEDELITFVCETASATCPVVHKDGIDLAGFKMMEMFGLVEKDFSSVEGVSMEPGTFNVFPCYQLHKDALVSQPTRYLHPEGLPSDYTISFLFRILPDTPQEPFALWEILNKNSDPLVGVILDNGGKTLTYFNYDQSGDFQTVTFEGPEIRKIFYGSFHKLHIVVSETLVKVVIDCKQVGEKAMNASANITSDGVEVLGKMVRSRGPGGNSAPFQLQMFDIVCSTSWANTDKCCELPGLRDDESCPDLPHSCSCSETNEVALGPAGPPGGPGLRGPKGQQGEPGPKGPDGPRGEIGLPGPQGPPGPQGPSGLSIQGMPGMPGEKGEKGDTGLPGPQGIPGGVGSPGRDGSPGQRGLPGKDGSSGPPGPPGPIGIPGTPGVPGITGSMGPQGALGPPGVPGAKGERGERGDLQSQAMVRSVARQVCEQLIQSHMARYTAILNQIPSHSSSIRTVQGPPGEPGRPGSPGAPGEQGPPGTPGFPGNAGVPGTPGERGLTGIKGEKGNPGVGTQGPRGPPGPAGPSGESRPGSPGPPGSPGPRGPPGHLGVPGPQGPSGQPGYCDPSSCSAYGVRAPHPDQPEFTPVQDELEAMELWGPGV
UniProt Q7Z4G1, whole entry, looked up: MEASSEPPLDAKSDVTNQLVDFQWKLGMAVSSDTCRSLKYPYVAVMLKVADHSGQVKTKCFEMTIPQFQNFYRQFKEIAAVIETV
UniProt Q8N9A8: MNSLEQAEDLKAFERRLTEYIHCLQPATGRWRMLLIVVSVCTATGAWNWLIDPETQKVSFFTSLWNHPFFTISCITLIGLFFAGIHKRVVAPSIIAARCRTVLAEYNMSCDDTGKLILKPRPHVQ
UniProt P61201: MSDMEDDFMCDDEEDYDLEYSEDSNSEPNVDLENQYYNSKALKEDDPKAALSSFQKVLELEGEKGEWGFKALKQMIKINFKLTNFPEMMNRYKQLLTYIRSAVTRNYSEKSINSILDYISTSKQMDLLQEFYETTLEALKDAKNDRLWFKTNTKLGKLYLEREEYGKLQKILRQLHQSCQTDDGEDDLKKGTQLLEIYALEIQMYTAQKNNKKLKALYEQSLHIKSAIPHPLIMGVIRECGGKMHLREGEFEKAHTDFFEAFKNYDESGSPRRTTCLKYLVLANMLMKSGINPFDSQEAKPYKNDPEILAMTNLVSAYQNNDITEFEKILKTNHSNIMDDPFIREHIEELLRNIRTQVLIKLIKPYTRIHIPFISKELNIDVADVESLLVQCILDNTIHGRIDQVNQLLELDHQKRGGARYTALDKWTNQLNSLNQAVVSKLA
UniProt Q14061: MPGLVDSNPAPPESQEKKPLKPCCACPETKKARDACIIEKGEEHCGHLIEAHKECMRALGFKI
UniProt P02452, whole entry, looked up: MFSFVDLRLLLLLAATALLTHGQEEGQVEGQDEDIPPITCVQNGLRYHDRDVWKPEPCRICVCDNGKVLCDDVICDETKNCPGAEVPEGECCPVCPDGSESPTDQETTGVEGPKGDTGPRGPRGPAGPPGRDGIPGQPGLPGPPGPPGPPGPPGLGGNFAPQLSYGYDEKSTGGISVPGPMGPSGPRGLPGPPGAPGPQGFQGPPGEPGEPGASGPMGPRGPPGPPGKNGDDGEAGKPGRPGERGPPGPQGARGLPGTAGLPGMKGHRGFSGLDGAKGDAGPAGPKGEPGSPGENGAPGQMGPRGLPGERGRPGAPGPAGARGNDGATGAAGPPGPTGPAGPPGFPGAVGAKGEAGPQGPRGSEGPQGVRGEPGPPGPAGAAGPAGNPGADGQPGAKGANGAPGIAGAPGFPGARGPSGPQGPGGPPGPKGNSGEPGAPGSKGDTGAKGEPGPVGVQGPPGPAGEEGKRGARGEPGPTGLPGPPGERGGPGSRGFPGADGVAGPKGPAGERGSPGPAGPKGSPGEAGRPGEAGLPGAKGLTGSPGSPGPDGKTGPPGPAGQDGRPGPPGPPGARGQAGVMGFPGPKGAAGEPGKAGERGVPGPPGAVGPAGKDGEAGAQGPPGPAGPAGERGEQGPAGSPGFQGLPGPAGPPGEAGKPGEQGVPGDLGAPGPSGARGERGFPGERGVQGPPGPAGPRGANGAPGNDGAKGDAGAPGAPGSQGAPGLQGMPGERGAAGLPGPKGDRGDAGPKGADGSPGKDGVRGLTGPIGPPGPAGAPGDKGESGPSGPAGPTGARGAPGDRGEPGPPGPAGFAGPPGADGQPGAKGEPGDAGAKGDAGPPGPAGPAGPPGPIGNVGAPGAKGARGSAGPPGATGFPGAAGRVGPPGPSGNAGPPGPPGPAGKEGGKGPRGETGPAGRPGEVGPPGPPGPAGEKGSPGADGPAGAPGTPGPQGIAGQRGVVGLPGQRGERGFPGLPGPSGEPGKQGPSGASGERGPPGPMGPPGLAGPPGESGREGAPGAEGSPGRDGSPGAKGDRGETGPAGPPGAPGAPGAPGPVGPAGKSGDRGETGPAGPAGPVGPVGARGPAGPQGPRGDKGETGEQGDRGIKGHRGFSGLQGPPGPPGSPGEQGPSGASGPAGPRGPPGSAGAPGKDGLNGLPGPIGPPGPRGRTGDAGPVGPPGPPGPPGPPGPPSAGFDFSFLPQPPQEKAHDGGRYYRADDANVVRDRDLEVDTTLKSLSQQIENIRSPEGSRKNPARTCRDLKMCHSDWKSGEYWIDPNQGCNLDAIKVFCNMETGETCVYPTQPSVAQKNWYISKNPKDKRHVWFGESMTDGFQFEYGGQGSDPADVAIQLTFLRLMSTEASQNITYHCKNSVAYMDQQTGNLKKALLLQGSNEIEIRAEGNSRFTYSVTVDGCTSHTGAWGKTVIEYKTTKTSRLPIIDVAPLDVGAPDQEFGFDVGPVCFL
UniProt Q9BU20: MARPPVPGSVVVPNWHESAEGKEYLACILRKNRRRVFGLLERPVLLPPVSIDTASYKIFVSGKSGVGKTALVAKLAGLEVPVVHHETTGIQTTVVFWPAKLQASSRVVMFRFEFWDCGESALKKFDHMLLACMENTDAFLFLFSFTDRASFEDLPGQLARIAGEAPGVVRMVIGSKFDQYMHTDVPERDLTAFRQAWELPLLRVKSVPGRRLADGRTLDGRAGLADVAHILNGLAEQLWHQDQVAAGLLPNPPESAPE

Legend:
Experiment in all cases: log2 fold change, soluble protein after heating vs DMSO (PISA); higher = thermal stabilisation; K562 lysate, 10 uM; active = over 0.2 and 3.5 SD of the protein, either way, in both replicates (recomputed)
[1] = compound: C1=CC2=NC=CN=C2C=C1/C=C/3\C(=O)NC(=O)S3
In short: (§1)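 Dounce homogenisation of K562 pellets in PBS pH 7.4 with 1 mM MgCl2 produced a crude extract, used at 1 mg/mL protein. Exposure to 10 μM compound lasted 30 min, and aliquots were then heated for 3 min across 48°C-58°C, pooled and brought to 0.5% NP-40 at 4°C. The supernatant after 21,000xg for 90 min was quantified by TMTpro 16plex LC-MS/MS with channel sums equalised. Duplicate values are given as log-two fold change in thermal stability relative to solvent controls.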

erlotinib = compound: C#Cc1cccc(Nc2ncnc3cc(OCCOC)c(OCCOC)cc23)c1 [erlotinib]
In short: as §1

[2] = compound: C1=CC(=CC=C1C2=NC3=C(N2)C=C(C=C3)C(=O)N)OC4=CC=C(C=C4)Cl
In short: as §1

[3] = compound: C1=CC=C(C=C1)C2=NC(=C(N2)C3=CC=NC=C3)C4=CC(=C(C=C4)Cl)O
In short: as §1

IRAK-1-4 Inhibitor I = compound: C1COCCN1CCN2C3=CC=CC=C3N=C2NC(=O)C4=CC(=CC=C4)[N+](=O)[O-] [IRAK-1-4 Inhibitor I]
In short: as §1

[4] = compound: C1CCN(C1)C(=O)NC2=CC=CC(=C2)NC3=NC=C(C(=N3)NCCC4=CN=CN4)Br
In short: as §1

[5] = compound: C1CN(CCC1(CC2=CC=C(C=C2)Cl)N)C3=NC=NC4=C3C=CN4
In short: as §1

[6] = compound: C/C(=N\NC(=O)C1=CC(=CC=C1)S(=O)(=O)N2CCOCC2)/C3=C(C=CC(=C3)Cl)O
In short: as §1

[7] = compound: C1=CC2=C(C=CC(=C2)/C=C\3/C(=O)NC(=NCC4=CC=CS4)S3)N=C1
In short: as §1

[8] = compound: C1=CC=C2C(=C1)C3=NNC4=CC=CC(=C43)C2=O
In short: as §1

Measured: log2 fold change

CORO6 isoform 5 (UniProt Q6QEF8)
inactive: [1] 0.035

CPEB3 (UniProt Q8NE35)
inactive: erlotinib -0.023 | [2] 0.002 | [3] 0.017 | IRAK-1-4 Inhibitor I 0.082

CNTROB isoform 2 (UniProt Q8N137)
inactive: erlotinib 0.16 | [2] 0.036

COX10 (UniProt Q12887)
inactive: [3] 0.035 | [4] 0.093 | [5] -0.098 | IRAK-1-4 Inhibitor I -0.092

COX14 (UniProt Q96I36)
inactive: erlotinib -0.021 | [2] -0.013

COMMD3-BMI1 (UniProt R4GMX3)
inactive: erlotinib -0.057 | [2] 0.201 | [1] -0.115 | [3] 0.022 | [4] -0.114 | [5] 0.039 | IRAK-1-4 Inhibitor I -0.141

CNK3/IPCEF1 isoform 2 (UniProt G9CGD6)
inactive: erlotinib 0.065 | [6] -0.008 | [2] 0.038 | [7] -0.082 | [3] -0.051 | [8] 0.053 | [4] 0.014 | [5] -0.048 | IRAK-1-4 Inhibitor I 0.105

COPA isoform 2 (UniProt P53621)
inactive: erlotinib -0.007 | [6] 0.019 | [2] 0.012 | [7] -0.002 | [1] -0.004 | [3] -0.001 | [8] -0.008 | [4] -0.027 | [5] -0.006 | IRAK-1-4 Inhibitor I 0.014

COL6A3 (UniProt P12111)
inactive: erlotinib -0.101 | [2] 0.14 | [1] -0.232 | [3] -0.108 | IRAK-1-4 Inhibitor I -0.071

COQ8B (UniProt Q96D53)
inactive: erlotinib -0.143 | [2] -0.063 | [4] -0.272 | [5] 0.178

CRADD (UniProt P78560)
inactive: erlotinib 0.052 | [6] 0.027 | [2] -0.076 | [7] -0.032 | [1] 0.025 | [3] 0.051 | [8] 0.03 | [4] -0.074 | [5] -0.01 | IRAK-1-4 Inhibitor I 0.046

CNRIP1 (UniProt Q96F85)
inactive: erlotinib -0.029 | [6] 0.204 | [2] -0.025 | [7] 0.012 | [1] 0.028 | [3] -0.118 | [8] -0.017 | IRAK-1-4 Inhibitor I 0.113

COPS3 isoform 2 (UniProt Q9UNS2)
inactive: [6] -0.098 | [7] -0.065 | [8] 0.17 | [4] 0.073 | [5] 0.039

COL14A1 (UniProt Q05707)
inactive: erlotinib -0.025 | [6] 0.032 | [2] -0.01 | [7] -0.033 | [1] 0.018 | [3] 0.069 | [8] 0.029 | IRAK-1-4 Inhibitor I 0.104

COPS9 (UniProt Q8WXC6)
inactive: erlotinib -0.01 | [2] -0.362 | [3] 0.081 | IRAK-1-4 Inhibitor I -0.371

CNNM2 (UniProt Q9H8M5)
inactive: erlotinib -0.109 | [6] -0.206 | [2] 0.038 | [7] 0.058 | [3] -0.106 | [8] -0.029 | [4] 0.045 | [5] 0.201 | IRAK-1-4 Inhibitor I 0.098

CNNM1 (UniProt Q9NRU3)
inactive: erlotinib -0.032 | [6] 0.027 | [2] 0.188 | [7] -0.055 | [8] -0.115 | [4] 0.048 | [5] 0.045

COMMD6 isoform 2 (UniProt Q7Z4G1)
inactive: erlotinib 0.031 | [2] -0.06 | [1] 0.163 | [3] 0.078 | [4] 0.121 | [5] 0.127 | IRAK-1-4 Inhibitor I -0.019

CNEP1R1 isoform 2 (UniProt Q8N9A8)
inactive: [1] -0.029

COL12A1 (UniProt Q99715)
inactive: erlotinib -0.016 | [6] -0.009 | [2] 0.01 | [7] -0.008 | [8] -0.053 | [4] 0.059 | [5] 0.065

COPG1 (UniProt Q9Y678)
inactive: erlotinib 0.006 | [6] -0.021 | [2] -0.002 | [7] -0.008 | [1] 0.005 | [3] 0.006 | [8] 0.002 | [4] -0.026 | [5] 0.01 | IRAK-1-4 Inhibitor I -0.001

COL25A1 (UniProt Q9BXS0)
inactive: [1] -0.016 | [3] -0.087 | IRAK-1-4 Inhibitor I 0.092

CPTP (UniProt Q5TA50)
inactive: erlotinib 0 | [6] 0.061 | [2] 0.104 | [7] 0.011 | [3] -0.045 | [8] -0.002 | [4] 0.062 | [5] 0 | IRAK-1-4 Inhibitor I 0.034

CNOT2 (UniProt F8VRS8)
inactive: erlotinib 0.307 | [2] 0.101

COMTD1 (UniProt Q86VU5)
inactive: erlotinib 0.145 | [6] 0.024 | [2] -0.076 | [7] 0.044 | [1] 0.021 | [3] -0.008 | [8] 0.026 | [4] -0.022 | [5] 0.048 | IRAK-1-4 Inhibitor I -0.038

COPS2 (UniProt P61201)
inactive: [4] -0.019 | [5] 0.026

Pulled one by one from the list above, 2 records:
COPS2 (UniProt P61201)
inactive: [4] -0.019 | [5] 0.026

COMTD1 (UniProt Q86VU5)
inactive: erlotinib 0.145 | [6] 0.024 | [2] -0.076 | [7] 0.044 | [1] 0.021 | [3] -0.008 | [8] 0.026 | [4] -0.022 | [5] 0.048 | IRAK-1-4 Inhibitor I -0.038

Later entries.

COX17 (UniProt Q14061)
inactive: erlotinib 0.063 | [2] -0.002

CRACR2B (UniProt Q8N4Y2)
inactive: erlotinib 0.057 | [2] -0.11

CPA4 (UniProt Q9UI42)
inactive: erlotinib -0.035 | [2] -0.074 | [1] 0.398 | [3] 0.019 | IRAK-1-4 Inhibitor I -0.059

COL1A1 (UniProt P02452)
inactive: erlotinib 0.041 | [2] 0.085

CORO7 (UniProt P57737)
inactive: erlotinib -0.001 | [6] 0.01 | [2] 0.291 | [7] -0.089 | [3] -0.023 | [8] -0.047 | [4] -0.07 | [5] 0.064 | IRAK-1-4 Inhibitor I 0.091

CNOT7 (UniProt H0YBT3)
inactive: [3] -0.197 | IRAK-1-4 Inhibitor I 0.19

CPLANE2 (UniProt Q9BU20)
inactive: erlotinib -0.333 | [2] -0.134 | [3] -0.226 | IRAK-1-4 Inhibitor I 0.178

CPNE8 (UniProt Q86YQ8)
inactive: erlotinib -0.14 | [6] 0.249 | [2] 0.004 | [7] 0.011 | [1] 0.112 | [3] 0.057 | [8] -0.118 | IRAK-1-4 Inhibitor I 0.062

CPLX1 (UniProt O14810)
inactive: [6] -0.059 | [7] 0.062 | [3] 0.012 | [8] 0.114 | [4] 0.012 | [5] -0.048 | IRAK-1-4 Inhibitor I 0.027

COCH (UniProt O43405)
inactive: erlotinib -0.032 | [6] 0.003 | [2] 0.065 | [7] 0.023 | [1] -0.055 | [3] 0.04 | [8] -0.005 | [4] -0.082 | [5] 0.125 | IRAK-1-4 Inhibitor I 0.002

CPVL (UniProt Q9H3G5)
inactive: erlotinib -0.052 | [6] -0.074 | [2] -0.017 | [7] -0.082 | [1] 0.026 | [3] 0.038 | [8] -0.199 | IRAK-1-4 Inhibitor I 0.03

COP1 (UniProt Q8NHY2)
inactive: erlotinib -0.113 | [2] -0.044 | [3] 0.022 | IRAK-1-4 Inhibitor I 0.004
